Source: patent US12558356B2, “Immunophilin binding agents and uses thereof” (The Regents of the University of California, priority 2019, dated 2026)
Structures were worked out from names or drawings and are uncertain.

Tests used:
p-S6 level in MCF7 cells = assay: Western blot of p-S6 level in MCF7 cells after combination treatment with Rapa/Rapalink and candidate compound (blockade score); conditions: 24 h, p-S6 level as fraction of DMSO control; for RapaLink-1 Blockade: 10 nM Rapalink + 10 μM candidate compound; for Rapamycin Blockade: 10 nM Rapa + 10 μM candidate compound
MCF7 cells = assay: Blocking of RapaLink-1 function in MCF7 cell culture (blots); conditions: 24 h treatment, tested form: formate
[1] = system: NFAT promoter in Jurkat cells; assay: NFAT promoter secreted luciferase assay in Jurkat cells stimulated with PMA/ionomycin; assay type: cell-based; conditions: up to 10 μM, PMA 10 ng/mL and ionomycin 1 μg/mL, 16 h, tested form: formate
[2] = system: mTOR signaling in brain and skeletal muscle; assay: In vivo brain/periphery mTOR inhibition in mouse model, blocker combined with rapamycin or RapaLink-1; conditions: 1 mg/kg Rapalink-1 + 40 mg/kg compound, tested form: formate
mTOR = assay: Protection of mouse tissue from RapaLink-1 (western blotting of skeletal muscle and brain); conditions: tested form: formate

| Structure (SMILES) | RapaLink-1 Blockade (p-S6 level in MCF7 cells) | Rapamycin Blockade (p-S6 level in MCF7 cells; tested form: formate) | RapaLink-1 Blockade (p-S6 level in MCF7 cells; tested form: formate) | durability of protective effects after washout (MCF7 cells) | immunosuppression (NFAT luciferase) [1] | In Vivo [2] | protection of peripheral tissue from RapaLink-1 (mTOR) |
| --- | --- | --- | --- | --- | --- | --- | --- |
| CO[C@H]1C[C@@H](C)C/C(C)=C/[C@@H](C/C=C/c2ccncc2)C(=O)C[C@H](O)[C@@H](C)[C@@H](/C(C)=C/[C@@H]2CC[C@@H](O)[C@H](OC)C2)OC(=O)[C@@H]2CCCCN2C(=O)C(=O)[C@]2(O)O[C@H]1[C@@H](OC)C[C@H]2C | 3 (>70%) | – | – | – | – | – | – |
| CO[C@H]1C[C@@H](C)C/C(C)=C/[C@@H](CCCSCCNC(=O)CNc2ccccn2)C(=O)C[C@H](O)[C@@H](C)[C@@H](/C(C)=C/[C@@H]2CC[C@@H](O)[C@H](OC)C2)OC(=O)[C@@H]2CCCCN2C(=O)C(=O)[C@]2(O)O[C@H]1[C@@H](OC)C[C@H]2C | – | 3 (>70%) | 3 (>70%) | – | – | – | – |
| CO[C@H]1C[C@@H](C)C/C(C)=C/[C@@H](CCCSCCNC(=O)Cc2ccccn2)C(=O)C[C@H](O)[C@@H](C)[C@@H](/C(C)=C/[C@@H]2CC[C@@H](O)[C@H](OC)C2)OC(=O)[C@@H]2CCCCN2C(=O)C(=O)[C@]2(O)O[C@H]1[C@@H](OC)C[C@H]2C | – | 3 (>70%) | 3 (>70%) | durable even after washout | not immunosuppressive | Dose: 1 mg/kg Rapalink-1 + 40 mg/kg ZZY05- 026; Blocks Rapalink-1 in muscle, Potentiates RapaLink-1 in brain | protects mouse peripheral tissue from RapaLink-1 |
